Laboratory results as given in the supplement of paper PMC11264405.

Tests used:
Assay in all cases: minimum inhibitory concentration
linezolid = compound: CC(=O)NC[C@H]1CN(c2ccc(N3CCOCC3)c(F)c2)C(=O)O1 [linezolid]
imipenem = compound: C[C@@H](O)[C@H]1C(=O)N2C(C(=O)O)=C(SCCNC=N)C[C@H]12 [imipenem]
tigecycline = compound: CN(C)c1cc(NC(=O)CNC(C)(C)C)c(O)c2c1C[C@H]1C[C@H]3[C@H](N(C)C)C(O)=C(C(N)=O)C(=O)[C@@]3(O)C(O)=C1C2=O [tigecycline]
vancomycin = compound: CN[C@H](CC(C)C)C(=O)N[C@H]1C(=O)N[C@@H](CC(N)=O)C(=O)N[C@H]2C(=O)N[C@H]3C(=O)N[C@H](C(=O)N[C@H](C(=O)O)c4cc(O)cc(O)c4-c4cc3ccc4O)[C@H](O)c3ccc(c(Cl)c3)Oc3cc2cc(c3O[C@@H]2O[C@H](CO)[C@@H](O)[C@H](O)[C@H]2O[C@H]2C[C@](C)(N)[C@H](O)[C@H](C)O2)Oc2ccc(cc2Cl)[C@H]1O [vancomycin]
meropenem = compound: C[C@@H](O)[C@H]1C(=O)N2C(C(=O)O)=C(S[C@@H]3CN[C@H](C(=O)N(C)C)C3)[C@H](C)[C@H]12 [meropenem]
metronidazole = compound: Cc1ncc([N+](=O)[O-])n1CCO [metronidazole]
rifampicin = compound: CO[C@H]1/C=C/O[C@@]2(C)Oc3c(C)c(O)c4c(O)c(c(/C=N/N5CCN(C)CC5)c(O)c4c3C2=O)NC(=O)/C(C)=C\C=C\[C@H](C)[C@H](O)[C@@H](C)[C@@H](O)[C@@H](C)[C@H](OC(C)=O)[C@@H]1C [rifampicin]
fidaxomicin = compound: CCc1c(Cl)c(O)c(Cl)c(O)c1C(=O)O[C@H]1[C@H](O)[C@H](OC)[C@H](OC/C2=C\C=C\C[C@H](O)/C(C)=C/[C@H](CC)[C@@H](O[C@@H]3OC(C)(C)[C@@H](OC(=O)C(C)C)[C@H](O)[C@@H]3O)/C(C)=C/C(C)=C/C[C@@H]([C@@H](C)O)OC2=O)O[C@@H]1C [fidaxomicin]
clindamycin = compound: CCC[C@@H]1C[C@@H](C(=O)N[C@@H]([C@H]2O[C@H](SC)[C@H](O)[C@@H](O)[C@H]2O)[C@H](C)Cl)N(C)C1 [clindamycin]

Test System | minimum inhibitory concentration (linezolid) | minimum inhibitory concentration (imipenem) | minimum inhibitory concentration (tigecycline) | minimum inhibitory concentration (vancomycin) | minimum inhibitory concentration (meropenem) | minimum inhibitory concentration (metronidazole) | minimum inhibitory concentration (rifampicin) | minimum inhibitory concentration (fidaxomicin) | minimum inhibitory concentration (clindamycin)
Clostridioides difficile PCR ribotype 015 isolate #305 (European region: East, country: Slovakia, isolate source: Animal, ribotype: 015) | 2 µg/mL | 2 µg/mL | < 0.03 µg/mL | 0.5 µg/mL | 4 µg/mL | < 0.125 µg/mL | < 0.001 µg/mL | 0.015 µg/mL | 8 µg/mL
Clostridioides difficile PCR ribotype 015 isolate #306 (European region: West, country: Netherlands, isolate source: Animal, ribotype: 015) | 2 µg/mL | 2 µg/mL | < 0.03 µg/mL | 1 µg/mL | 2 µg/mL | < 0.125 µg/mL | < 0.001 µg/mL | 0.015 µg/mL | 8 µg/mL
Clostridioides difficile PCR ribotype 015 isolate #307 (European region: West, country: France, isolate source: Animal, ribotype: 015) | 2 µg/mL | 2 µg/mL | < 0.03 µg/mL | 0.5 µg/mL | 4 µg/mL | < 0.125 µg/mL | < 0.001 µg/mL | 0.015 µg/mL | 16 µg/mL
Clostridioides difficile PCR ribotype 016 isolate #88 (European region: East, country: Poland, isolate source: Human, ribotype: 016) | 2 µg/mL | 4 µg/mL | < 0.03 µg/mL | 0.5 µg/mL | 4 µg/mL | 8 µg/mL | < 0.001 µg/mL | 0.03 µg/mL | 8 µg/mL
Clostridioides difficile PCR ribotype 017 isolate #89 (European region: West, country: Netherlands, isolate source: Human, ribotype: 017) | 2 µg/mL | 4 µg/mL | < 0.03 µg/mL | 0.5 µg/mL | 2 µg/mL | < 0.125 µg/mL | < 0.001 µg/mL | 0.125 µg/mL | 1 µg/mL
Clostridioides difficile PCR ribotype 018 isolate #90 (European region: East, country: Romania, isolate source: Human, ribotype: 018) | < 0.125 µg/mL | 1 µg/mL | < 0.03 µg/mL | 1 µg/mL | 2 µg/mL | 0.25 µg/mL | < 0.001 µg/mL | 0.008 µg/mL | 16 µg/mL
Clostridioides difficile PCR ribotype 018 isolate #93 (European region: South, country: Italy, isolate source: Human, ribotype: 018) | 4 µg/mL | 4 µg/mL | < 0.03 µg/mL | 0.5 µg/mL | 4 µg/mL | 0.25 µg/mL | > 32 µg/mL | 0.004 µg/mL | 8 µg/mL
Clostridioides difficile PCR ribotype 018 isolate #94 (European region: South, country: Italy, isolate source: Human, ribotype: 018) | 4 µg/mL | 4 µg/mL | < 0.03 µg/mL | 0.5 µg/mL | 4 µg/mL | < 0.125 µg/mL | 16 µg/mL | 0.008 µg/mL | 4 µg/mL
Clostridioides difficile PCR ribotype 020 isolate #95 (European region: North, country: Sweden, isolate source: Human, ribotype: 020) | 2 µg/mL | 2 µg/mL | < 0.03 µg/mL | 1 µg/mL | 2 µg/mL | 0.25 µg/mL | < 0.001 µg/mL | 0.03 µg/mL | 16 µg/mL
Clostridioides difficile PCR ribotype 020 isolate #96 (European region: North, country: Ireland, isolate source: Human, ribotype: 020) | 2 µg/mL | 2 µg/mL | < 0.03 µg/mL | 1 µg/mL | 4 µg/mL | < 0.125 µg/mL | < 0.001 µg/mL | 0.015 µg/mL | 16 µg/mL
Clostridioides difficile PCR ribotype 020 isolate #97 (European region: West, country: France, isolate source: Human, ribotype: 020) | 2 µg/mL | 2 µg/mL | < 0.03 µg/mL | 1 µg/mL | 4 µg/mL | < 0.125 µg/mL | < 0.001 µg/mL | 0.015 µg/mL | 8 µg/mL
Clostridioides difficile PCR ribotype 020 isolate #98 (European region: South, country: Spain, isolate source: Human, ribotype: 020) | 2 µg/mL | 4 µg/mL | 0.06 µg/mL | 0.5 µg/mL | 4 µg/mL | 0.25 µg/mL | 0.002 µg/mL | 0.125 µg/mL | 8 µg/mL
Clostridioides difficile PCR ribotype 020 isolate #99 (European region: North, country: UK, isolate source: Human, ribotype: 020) | 2 µg/mL | 2 µg/mL | 0.06 µg/mL | 0.5 µg/mL | 2 µg/mL | 0.25 µg/mL | < 0.001 µg/mL | 0.03 µg/mL | 16 µg/mL

2 neighbouring records out of the list so far, for reference:
Test System | minimum inhibitory concentration (linezolid) | minimum inhibitory concentration (imipenem) | minimum inhibitory concentration (tigecycline) | minimum inhibitory concentration (vancomycin) | minimum inhibitory concentration (meropenem) | minimum inhibitory concentration (metronidazole) | minimum inhibitory concentration (rifampicin) | minimum inhibitory concentration (fidaxomicin) | minimum inhibitory concentration (clindamycin)
Clostridioides difficile PCR ribotype 020 isolate #97 (European region: West, country: France, isolate source: Human, ribotype: 020) | 2 µg/mL | 2 µg/mL | < 0.03 µg/mL | 1 µg/mL | 4 µg/mL | < 0.125 µg/mL | < 0.001 µg/mL | 0.015 µg/mL | 8 µg/mL
Clostridioides difficile PCR ribotype 020 isolate #98 (European region: South, country: Spain, isolate source: Human, ribotype: 020) | 2 µg/mL | 4 µg/mL | 0.06 µg/mL | 0.5 µg/mL | 4 µg/mL | 0.25 µg/mL | 0.002 µg/mL | 0.125 µg/mL | 8 µg/mL
